Source: paper doi:10.1101/2020.05.04.076208
No constants are given. Whether binding was seen depends on the method and setting. Binding seen in cells or lysates may run through a third protein. Binding can be weak; no strength is given.

Sequences of proteins named here, by UniProt entry; tags and fusion partners are left off. A change or cut given only in a name is not applied to a line headed by its entry. Residues count along the entry.
UniProt Q8R550: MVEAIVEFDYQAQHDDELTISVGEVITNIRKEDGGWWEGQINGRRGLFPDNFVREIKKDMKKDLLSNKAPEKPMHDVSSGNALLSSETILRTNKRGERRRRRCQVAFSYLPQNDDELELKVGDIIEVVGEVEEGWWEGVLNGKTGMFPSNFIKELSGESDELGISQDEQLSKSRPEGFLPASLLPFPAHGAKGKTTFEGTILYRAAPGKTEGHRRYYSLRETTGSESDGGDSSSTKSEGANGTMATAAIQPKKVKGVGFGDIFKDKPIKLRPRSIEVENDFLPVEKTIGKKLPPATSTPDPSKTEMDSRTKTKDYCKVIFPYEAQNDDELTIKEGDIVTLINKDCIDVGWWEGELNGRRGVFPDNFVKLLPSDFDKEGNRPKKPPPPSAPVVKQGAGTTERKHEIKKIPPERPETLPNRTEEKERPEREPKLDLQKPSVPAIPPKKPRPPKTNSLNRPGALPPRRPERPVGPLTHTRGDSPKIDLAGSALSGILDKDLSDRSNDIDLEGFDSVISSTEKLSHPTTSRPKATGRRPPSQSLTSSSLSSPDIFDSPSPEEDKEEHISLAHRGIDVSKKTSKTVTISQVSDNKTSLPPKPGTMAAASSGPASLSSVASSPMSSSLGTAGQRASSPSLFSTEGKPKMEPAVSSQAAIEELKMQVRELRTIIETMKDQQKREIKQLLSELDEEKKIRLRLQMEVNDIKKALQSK
UniProt P08003, residues 21-638: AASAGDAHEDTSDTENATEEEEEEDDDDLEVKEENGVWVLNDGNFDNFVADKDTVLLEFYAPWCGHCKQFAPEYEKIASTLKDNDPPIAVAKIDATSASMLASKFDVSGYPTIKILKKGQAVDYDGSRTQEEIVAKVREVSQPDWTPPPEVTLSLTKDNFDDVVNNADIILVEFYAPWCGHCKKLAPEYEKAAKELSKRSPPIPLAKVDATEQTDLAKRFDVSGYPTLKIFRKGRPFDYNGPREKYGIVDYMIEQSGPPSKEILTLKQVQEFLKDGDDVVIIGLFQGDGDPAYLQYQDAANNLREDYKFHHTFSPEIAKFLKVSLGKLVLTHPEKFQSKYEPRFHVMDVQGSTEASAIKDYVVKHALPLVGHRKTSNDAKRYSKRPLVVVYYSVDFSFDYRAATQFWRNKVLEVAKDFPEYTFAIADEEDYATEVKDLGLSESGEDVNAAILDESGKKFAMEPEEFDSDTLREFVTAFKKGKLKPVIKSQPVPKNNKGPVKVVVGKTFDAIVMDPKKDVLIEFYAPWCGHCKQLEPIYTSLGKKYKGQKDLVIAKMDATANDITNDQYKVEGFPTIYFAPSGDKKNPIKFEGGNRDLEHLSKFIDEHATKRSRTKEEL

How the values were obtained:
[1] = biological target: GFP-SH3KBP1 C-terminal part (UniProt Q8R550); test: co-IP
[2] = biological target: GFP-SH3KBP1 deletion mutant without the C-terminus coiled-coil domain; test: co-IP

Row | binding [1] | binding [2] | Molecule
1 | binds | – | Endoplasmic reticulum resident protein 72 (from UniProt P08003 21-638)
2 | binds | binds | Calnexin (protein, UniProt P35564 21-591) HDGHDDDAIDIEDDLDDVIEEVEDSKSKSDASTPPSPKVTYKAPVPTGEVYFADSFDRGSLSGWILSKAKKDDTDDEIAKYDGKWEVDEMKETKLPGDKGLVLMSRAKHHAISAKLNKPFLFDTKPLIVQYEVNFQNGIECGGAYVKLLSKTAELSLDQFHDKTPYTIMFGPDKCGEDYKLHFIFRHKNPKTGVYEEKHAKRPDADLKTYFTDKKTHLYTLILNPDNSFEILVDQSVVNSGNLLNDMTPPVNPSREIEDPEDRKPEDWDERPKIADPDAVKPDDWDEDAPSKIPDEEATKPEGWLDDEPEYIPDPDAEKPEDWDEDMDGEWEAPQIANPKCESAPGCGVWQRPMIDNPNYKGKWKPPMIDNPNYQGIWKPRKIPNPDFFEDLEPFKMTPFSAIGLELWSMTSDIFFDNFIISGDRRVVDDWANDGWGLKKAADGAAEPGVVLQMLEAAEERPWLWVVYILTVALPVFLVILFCCSGKKQSNAMEYKKTDAPQPDVKDEEGKEEEKNKRDEEEEEEKLEEKQKSDAEEDGVTGSQDEEDSKPKAEEDEILNRSPRNRKPRRE
